Patent US20150164762A1, “USE OF ETHANOLAMINE PHOSPHATE” (priority 2012, published 2015)

Test system: BEAS-2B
Assay: Gene Ontology (GO) analysis of genes differentially expressed by EP
Parameters: species or system human
Settings: for % Count in Selection / Count in Selection: genes reduced by EP
[1] = GO: 0000236 mitotic prometaphase
[2] = GO: 0000778 condensed nuclear chromosome kinetochore
[3] = GO: 0000780 condensed nuclear chromosome, centromeric region
[4] = GO: 0001568 blood vessel development
[5] = GO: 0001944 vasculature development
[6] = GO: 0002861 regulation of inflammatory response to antigenic stimulus
[7] = GO: 0005578 proteinaceous extracellular matrix
[8] = GO: 0006334 nucleosome assembly
[9] = GO: 0006355 regulation of transcription, DNA-dependent
[10] = GO: 0006917 induction of apoptosis
[11] = GO: 0007275 multicellular organismal development
[12] = GO: 0010941 regulation of cell death
[13] = GO: 0010942 positive regulation of cell death
[14] = GO: 0016043 cellular component organization
[15] = GO: 0030154 cell differentiation
[16] = GO: 0030517 negative regulation of axon extension
[17] = GO: 0032502 developmental process
[18] = GO: 0034728 nucleosome organization
[19] = GO: 0042981 regulation of apoptosis
[20] = GO: 0043065 positive regulation of apoptosis
[21] = GO: 0048514 blood vessel morphogenesis
[22] = GO: 0048869 cellular developmental process
[23] = GO: 0050793 regulation of developmental process
[24] = GO: 0051252 regulation of RNA metabolic process
[25] = GO: 0051984 positive regulation of chromosome segregation
[26] = GO: 0051987 positive regulation of attachment of spinde microtubules to kinetochore
[27] = GO: 0065004 protein-DNA complex assembly
[28] = GO: 0071824 protein-DNA complex subunit organization
[29] = GO: 0085007 biological regulation

NCCOP(=O)(O)O [EP, Ethanolamine phosphate]
number of genes with reduced expression associated with regulation of apoptosis (GO: 0042981) (1 mM EP, 24 h): 123 | % Count in Selection, genes increased by EP [1]: 2.99E−01% | Count in Selection, genes increased by EP [1]: 2 | % Count in Selection, genes increased by EP [2]: 4.48E−01% | Count in Selection, genes increased by EP [2]: 3 | % Count in Selection, genes increased by EP [3]: 5.98E−01% | Count in Selection, genes increased by EP [3]: 4 | % Count in Selection, genes increased by EP (GO: 0001525 angiogenesis): 2.09E+00% | Count in Selection, genes increased by EP (GO: 0001525 angiogenesis): 14 | % Count in Selection, genes increased by EP [4]: 2.99E+00% | Count in Selection, genes increased by EP [4]: 20 | % Count in Selection, genes increased by EP [5]: 2.99E+00% | Count in Selection, genes increased by EP [5]: 20 | % Count in Selection, genes increased by EP [6]: 4.48E−01% | Count in Selection, genes increased by EP [6]: 3 | % Count in Selection, genes increased by EP [7]: 3.59E+00% | Count in Selection, genes increased by EP [7]: 24 | % Count in Selection, genes increased by EP (GO: 0005607 laminin-2 complex): 2.99E−01% | Count in Selection, genes increased by EP (GO: 0005607 laminin-2 complex): 2 | % Count in Selection, genes increased by EP [8]: 1.35E+00% | Count in Selection, genes increased by EP [8]: 9 | % Count in Selection [9]: 1.38E+01% | Count in Selection [9]: 208 | % Count in Selection [10]: 4.08E+00% | Count in Selection [10]: 61 | % Count in Selection [11]: 2.05E+01% | Count in Selection [11]: 306 | % Count in Selection [12]: 8.23E+00% | Count in Selection [12]: 123 | % Count in Selection [13]: 4.95E+00% | Count in Selection [13]: 74 | % Count in Selection, genes increased by EP [14]: 1.96E+01% | Count in Selection, genes increased by EP [14]: 131 | % Count in Selection [15]: 1.33E+01% | Count in Selection [15]: 199 | % Count in Selection, genes increased by EP [16]: 4.48E−01% | Count in Selection, genes increased by EP [16]: 3 | % Count in Selection, genes increased by EP (GO: 0031577 spindle checkpoint): 5.98E−01% | Count in Selection, genes increased by EP (GO: 0031577 spindle checkpoint): 4 | % Count in Selection [17]: 2.29E+01% | Count in Selection [17]: 343 | % Count in Selection, genes increased by EP [18]: 1.49E+00% | Count in Selection, genes increased by EP [18]: 10 | % Count in Selection [19]: 8.23E+00% | Count in Selection [19]: 123 | % Count in Selection [20]: 4.95E+00% | Count in Selection [20]: 74 | % Count in Selection (GO: 0048513 organ development): 1.22E+01% | Count in Selection (GO: 0048513 organ development): 183 | % Count in Selection, genes increased by EP [21]: 2.69E+00% | Count in Selection, genes increased by EP [21]: 18 | % Count in Selection [22]: 1.36E+01% | Count in Selection [22]: 203 | % Count in Selection [23]: 5.95E+00% | Count in Selection [23]: 89 | % Count in Selection [24]: 1.41E+01% | Count in Selection [24]: 211 | % Count in Selection, genes increased by EP [25]: 2.99E−01% | Count in Selection, genes increased by EP [25]: 2 | % Count in Selection, genes increased by EP [26]: 2.99E−01% | Count in Selection, genes increased by EP [26]: 2 | % Count in Selection, genes increased by EP [27]: 1.49E+00% | Count in Selection, genes increased by EP [27]: 10 | % Count in Selection, genes increased by EP [28]: 1.64E+00% | Count in Selection, genes increased by EP [28]: 11 | % Count in Selection [29]: 5.28E+01% | Count in Selection [29]: 790
